In PMC11077055, “Structure-functional characterization of Lactococcus AbiA phage defense system” (Nucleic Acids Research, 2024):
No constants are given. Whether binding was seen depends on the method and setting. Sequences can lack the tags named with a protein.

Molecular target: SUMO-tagged AbiA-ΔHEPN (aa 1-478) (L. lactis) (UniProt Q48596)
Assay: SEC-MALS; Superdex 200 Increase 10/300 GL; 25 mM Tris pH 7.0, 400 mM NaCl, 2% glycerol, 1 mM DTT; 0.75 ml/min; self-association of AbiA variants; both purified

binding: no binding
B1: SUMO-tagged AbiA-ΔHEPN (aa 1-478) (domain or fragment, UniProt Q48596 1-478)
chain: MITLQHQDWERAVNMIKNIPPSAKNKYFQTFPFFLLSETSWEELLSENFFYSYIKSGEFLTYQENLSFYDRTIQKSHGAYRQTRIVSPIIYIFLIAIASQVERIYVEKRTNDMSVYFSGSFEKEKNTAHYKQSYNTYMTELNACQEEFDYYFQTDFSTFFHLVDTDNLFNKIDRLDPKSALVYSSLIKMIGQGRMPIVDGNSGLSFLNTVVYLDDFDKEIIDSLKTIVEIESFKLVRYVDDLHIFIKCANKDLDFLNYKVYNLLCEKATKHHLEINSSKTKSFTPTSELSTKMNTDLYNFFVYNEDVDFEQYFSKNTLIEFLDKLNNMSVNADFSEYEKEVLYTLENPEIVSDGSYILNAIVYNKSTWSQDYDIKNKISLLVNSNYRKLRYSAKALITLVLNTRDGDIIKGLLNNLFTTFKNGTNDIIDEIILIEYLVQRKFNHKDLMTILKADDHGIKEYIKAYQTSDFIKSLEKNK
